# The other results are listed elsewhere or left out. Further columns of the screen follow, without active or inactive calls. The list favours compounds with an active or inconclusive main result. The note in brackets gives the kind of curve behind each potency; many fits are weak.
# Assay: qHTS Assay for Lipid Storage Modulators in Drosophila S3 Cells;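 as to cell number change: cells counted by Cell Tracker Red CMTPX staining in the red channel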
# Conditions: BODIPY lipid droplet fluorescence, 18-24 h; for cell number change: measured here: cell count max response, cells fed with added oleic acid
# In short: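 Drosophila S3 cells got compounds at several concentrations plus oleic acid (400 uM solution). Laser-scanning cytometry with 488 nm excitation read lipid droplets at 500-530 nm and cells at 575-640 nm. Percent activity was relative to 20 uM Triacsin C.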
# [1] = measured here: lipid fluorescence (Fed channel) AC50, cells fed with added oleic acid
# [2] = measured here: cell number channel AC50, cells fed with added oleic acid
compound,measurement,setting,value
Cc1ccc2c(c1)N(S(=O)(=O)c1cc(-c3onc(C)c3C)ccc1C)CCO2,cell number change,,-5.2%
COc1ccccc1NS(=O)(=O)c1ccc(C)c(C(=O)NC2=NCCS2)c1,cell number change,,12.1%
same,AC50,[1],"16.4 µM [falling, single point]"
Cc1cccc(NC(=S)Nc2cccc3ccccc23)c1,cell number change,,-44.1%
same,AC50,[2],"0.00517 µM [falling, full curve, poor fit]"
same,AC50,[1],"6.51 µM [falling, single point]"
O=C(CNc1cccc([N+](=O)[O-])c1)N/N=C/c1ccc([N+](=O)[O-])o1,cell number change,,-55.1%
same,AC50,[1],"1.46 µM [falling, partial curve]"
Cc1ccc(NC(=O)/C(=C\c2ccccc2)NC(=O)/C=C/c2ccccc2)cc1,cell number change,,-13.8%
O=C(OCCOc1cccc(Cl)c1)c1cc(S(=O)(=O)N2CCOCC2)ccc1F,cell number change,,-14.9%
same,AC50,[1],"0.461 µM [rising, partial curve, poor fit]"
CCNC(=O)NC(=O)COC(=O)c1cccc(NS(=O)(=O)/C=C/c2ccccc2)c1,cell number change,,-66.7%
same,AC50,[2],"0.82 µM [falling, full curve]"
CCn1ncc(C2=NOC(C(=O)Nc3ccccc3C(=O)OC)C2)c1C (stereo not drawn),cell number change,,-11.1%
same,AC50,[1],"1.16 µM [rising, single point]"
Cc1ccc(S(=O)(=O)N2CCCCC2)cc1NC(=O)c1cnccn1,cell number change,,155%
same,AC50,[2],"18.4 µM [rising, single point]"
COc1ccc(-c2cc3ccccc3oc2=O)cc1NC(=O)c1ccc(Br)o1,cell number change,,-66.5%
same,AC50,[2],"29.1 µM [falling, single point]"
CN(C)C(CNC(=O)CCC(=O)c1ccc(Br)cc1)c1ccccc1 (stereo not drawn),cell number change,,-13.9%
same,AC50,[2],"0.731 µM [falling, single point]"
O=C(CCS(=O)(=O)c1ccccc1)OCc1ccc([N+](=O)[O-])cc1,cell number change,,14.7%
same,AC50,[1],"0.00517 µM [rising, full curve, poor fit]"
CCc1ccc(NC(=O)C2=CC(c3ccc(OC)c(OC)c3)=NS(=O)(=O)N2C)cc1,cell number change,,-12.1%
same,AC50,[1],"7.31 µM [falling, partial curve]"
CC(C)NC(=O)CSc1nc2ccccc2c(=O)n1CCCOC(C)C,cell number change,,10.9%
same,AC50,[2],"1.03 µM [rising, full curve]"
same,AC50,[1],"16.4 µM [rising, single point]"
Cc1cccc(OCC(=O)N(Cc2ccco2)C2CCS(=O)(=O)C2)c1 (stereo not drawn),cell number change,,14.7%
COCCn1c(SCC(=O)N(C)C2CCS(=O)(=O)C2)nc2ccccc2c1=O (stereo not drawn),cell number change,,-33.6%
same,AC50,[2],"0.731 µM [falling, full curve]"
Cc1ccccc1-n1ncc2c([N+](=O)[O-])cc([N+](=O)[O-])cc21,cell number change,,98.5%
same,AC50,[2],"29.1 µM [rising, single point]"
same,AC50,[1],"29.1 µM [rising, single point]"
CCSc1nnc(NC(=O)CC(C)C)s1,AC50,[1],"5.8 µM [rising, partial curve]"
CCN(C(=O)COC(=O)CNC(=O)c1sc2ccccc2c1Cl)C1CCCCC1,AC50,[2],"0.146 µM [rising, full curve, poor fit]"
O=c1c2c3c(sc2n(CCN2CCCC2)c(=O)n1Cc1ccccc1)CCCCC3,cell number change,,4.77%
same,AC50,[1],"23.1 µM [rising, single point]"
Cc1ccc(S(=O)(=O)N2CC(O)CC2C(=O)OCC(=O)c2ccccc2Cl)cc1C (stereo not drawn),cell number change,,-36.3%
same,AC50,[2],"29.1 µM [falling, single point]"
Cc1cccc(OCC(=O)N/N=C\c2cccn2C)c1C,cell number change,,-16.6%
C/C(=N\NC(=O)c1ccccc1)c1ccccc1Br,AC50,[1],"29.1 µM [rising, single point]"
Cn1cc(CNCC2CCCO2)c(-c2ccc(Oc3ccccc3)cc2)n1 (stereo not drawn),cell number change,,7.43%
same,AC50,[1],"0.00517 µM [rising, full curve, poor fit]"
COc1ccc(CC(=O)N(Cc2ccccc2)c2ccc(C)cc2)cc1OC,cell number change,,5.41%
Cc1ccnc(NCc2ccccc2O)c1,cell number change,,12.4%
same,AC50,[1],"0.0366 µM [rising, single point]"
O=C(NCc1nnnn1-c1ccc(F)c(F)c1)c1cc2ccccc2o1,cell number change,,40.8%
same,AC50,[2],"5.17 µM [rising, full curve, poor fit]"
Cc1cc(NC(=O)c2ccc([N+](=O)[O-])cc2Cl)no1,AC50,[2],"1.46 µM [rising, partial curve, poor fit]"
C[n+]1ccccc1/C=N/O,cell number change,,5.71%
same,AC50,[1],"3.26 µM [falling, single point]"
CCOC(=O)N1CCc2c(sc3ncn(Cc4ccc(F)cc4)c(=O)c23)C1,cell number change,,20.4%
same,AC50,[2],"0.058 µM [rising, full curve, poor fit]"
same,AC50,[1],"0.411 µM [rising, full curve]"
CN1c2ccccc2C(=O)NC1c1ccc(Cl)cc1 (stereo not drawn),cell number change,,15.2%
same,AC50,[2],"4.61 µM [falling, single point]"
same,AC50,[1],"7.31 µM [falling, single point]"
CCOC(=O)C(CC(C)C)CP(=O)(O)CNC(=O)OCc1ccccc1 (stereo not drawn),cell number change,,-12%
same,AC50,[1],"3.26 µM [falling, single point]"
O=C(O)CC1=C(O)C(=O)N(c2ccccc2)C1c1ccc(Cl)cc1 (stereo not drawn),cell number change,,-26.3%
same,AC50,[1],"29.1 µM [falling, single point]"
CCCN(C(=O)c1cc(CC)c(C)s1)c1c(N)n(Cc2ccccc2)c(=O)[nH]c1=O,cell number change,,-9.08%
same,AC50,[1],"7.31 µM [falling, partial curve]"
Cc1ccc(SCC(=O)O/N=C(\N)c2cccnc2)cc1,cell number change,,9.54%
CC(=O)c1c(C)[nH]c(C(=O)OCc2cc(=O)n3cc(Br)ccc3n2)c1C,cell number change,,-25.4%
same,AC50,[1],"4.11 µM [rising, partial curve, poor fit]"
O=C1N/C(=C/c2ccc(Br)cc2)C(O)=C1C=NCc1ccccc1,cell number change,,-46.5%
same,AC50,[2],"29.1 µM [falling, single point]"
same,AC50,[1],"1.46 µM [rising, partial curve]"
CC(=O)NCCNc1ccc([N+](=O)[O-])cc1C#N,cell number change,,-10.6%
same,AC50,[2],"6.51 µM [rising, partial curve, poor fit]"
O=C(CSc1ncn[nH]1)Nc1ccc2c(c1)OCCO2,cell number change,,21.8%
same,AC50,[1],"0.461 µM [falling, full curve, poor fit]"
O=S(=O)(CCOc1ccccc1)N1CCOCC1,cell number change,,1.64%
same,AC50,[1],"0.103 µM [falling, full curve, poor fit]"
O=C(CNC(=O)c1cnccn1)Nc1ccc(F)c(F)c1F,cell number change,,45.9%
same,AC50,[2],"29.1 µM [rising, single point]"
CCC(C)[C@H](NC(=O)N1CCC(C)CC1)C(=O)O (stereo partly drawn),cell number change,,-54.7%
same,AC50,[2],"1.84 µM [falling, partial curve]"
same,AC50,[1],"32.6 µM [falling, partial curve, poor fit]"
Cc1cc(OCCCC(=O)NNC(=O)c2ccncc2)ccc1Cl,cell number change,,15.6%
same,AC50,[1],"2.31 µM [rising, single point]"
CCOC(=O)C1=C(Nc2ccccc2)CC(C)(O)C(C(=O)OCC)C1c1ccc(Br)cc1 (stereo not drawn),cell number change,,-28.5%
same,AC50,[1],"18.4 µM [falling, partial curve]"
CC(=O)c1sc2nc(C)cc(C)c2c1N,cell number change,,64.7%
same,AC50,[2],"6.51 µM [rising, full curve]"
same,AC50,[1],"7.31 µM [rising, partial curve]"
O=C(Oc1ccc(O)cc1)C12CC3CC(CC(C3)C1)C2,cell number change,,-61.8%
same,AC50,[2],"20.6 µM [falling, partial curve]"
same,AC50,[1],"20.6 µM [falling, partial curve]"
O=C(Nc1ccccc1Cl)c1ccccc1Cl,cell number change,,-14.3%
same,AC50,[2],"3.26 µM [rising, partial curve]"
CCOC(=O)C1(CCCc2ccccc2)CCN(C(=O)c2cc(C)nn2CC)CC1,cell number change,,-11.6%
same,AC50,[1],"0.092 µM [rising, full curve, poor fit]"
Cc1ccsc1C1C(C(=O)O)c2ccccc2C(=O)N1C (stereo not drawn),cell number change,,13.1%
same,AC50,[1],"3.66 µM [falling, single point]"
CCCc1nnc(SCc2ccc(OC)cc2)n1N,cell number change,,8.79%
same,AC50,[1],"6.51 µM [falling, single point]"
O=C(O)CCC(=O)N1N=C(c2ccco2)CC1c1ccco1 (stereo not drawn),cell number change,,-0.794%
same,AC50,[2],"0.00651 µM [rising, full curve, poor fit]"
Cc1ccc(NC(=O)c2nn(C34CC5CC(CC(C5)C3)C4)cc2[N+](=O)[O-])cc1,cell number change,,-24.7%
same,AC50,[1],"13 µM [falling, partial curve]"
CN(CC(=O)N1CCN(c2ccc(F)cc2)CC1)S(=O)(=O)c1ccc(F)cc1,AC50,[2],"6.51 µM [falling, single point]"
same,AC50,[1],"0.13 µM [rising, full curve, poor fit]"
NNC(=O)C1CC1c1ccc(Cl)cc1 (stereo not drawn),cell number change,,17.7%
same,AC50,[1],"18.4 µM [rising, single point]"
Cc1cccc(C)c1CC(=O)N1CCOCC1,cell number change,,10.8%
same,AC50,[1],"0.82 µM [rising, full curve, poor fit]"
O=C(NCCc1ccccn1)C1CCCN1S(=O)(=O)c1ccc(Cl)cc1 (stereo not drawn),cell number change,,10.1%
COc1ccc(NC(=O)CSc2ccc(-c3ccco3)nn2)c(OC)c1,cell number change,,13.3%
Cc1cc([N+](=O)[O-])cc(C)c1OCC(=O)N/N=C/c1ccc(OC(=O)c2ccccc2Br)cc1,cell number change,,29.1%
same,AC50,[1],"16.4 µM [rising, single point]"
Cc1ccc(S(=O)(=O)Nc2c(NC3CCCCC3)c3ccccc3oc2=O)c(C)c1,cell number change,,1.52%
same,AC50,[1],"16.4 µM [rising, partial curve]"
CC(C)Nc1nc(NC(C)C)nc(N(C)C(N)=O)n1,AC50,[1],"3.26 µM [rising, partial curve]"
COc1ccccc1N1CCN(CC(=O)Nc2ccccc2C(=O)NC(C)c2ccccc2)CC1 (stereo not drawn),cell number change,,-13.3%
same,AC50,[1],"0.00461 µM [falling, full curve, poor fit]"

# In another format: results already given
compound | measurement | setting | value
CCNC(=O)NC(=O)COC(=O)c1cccc(NS(=O)(=O)/C=C/c2ccccc2)c1 | cell number change |  | -66.7%
CCn1ncc(C2=NOC(C(=O)Nc3ccccc3C(=O)OC)C2)c1C (stereo not drawn) | AC50 | [1] | 1.16 µM [rising, single point]
CCc1ccc(NC(=O)C2=CC(c3ccc(OC)c(OC)c3)=NS(=O)(=O)N2C)cc1 | AC50 | [1] | 7.31 µM [falling, partial curve]
CCN(C(=O)COC(=O)CNC(=O)c1sc2ccccc2c1Cl)C1CCCCC1 | AC50 | [2] | 0.146 µM [rising, full curve, poor fit]
CCC(C)[C@H](NC(=O)N1CCC(C)CC1)C(=O)O (stereo partly drawn) | cell number change |  | -54.7%
Cc1ccsc1C1C(C(=O)O)c2ccccc2C(=O)N1C (stereo not drawn) | cell number change |  | 13.1%
Cc1ccc(S(=O)(=O)Nc2c(NC3CCCCC3)c3ccccc3oc2=O)c(C)c1 | AC50 | [1] | 16.4 µM [rising, partial curve]
